pIC50: −log10 of the molar value. Structures can show the parent of a compound that is named as a salt. Some of these results come from one statement about several compounds together.
Molecular target: Constitutively activated human mutant MEK1 (Homo sapiens, UniProt Q02750)
Assay: MEK assay (MEK activity assay), Example 1a or 1b
Type: biochemical
Details: assay described either in Example 1a or 1b; 50 μM ATP, GST-ERK1 substrate, HTRF

The chains behind the UniProt entries cited, without tags or fusion partners.
UniProt Q02750, whole entry S218D/S222D: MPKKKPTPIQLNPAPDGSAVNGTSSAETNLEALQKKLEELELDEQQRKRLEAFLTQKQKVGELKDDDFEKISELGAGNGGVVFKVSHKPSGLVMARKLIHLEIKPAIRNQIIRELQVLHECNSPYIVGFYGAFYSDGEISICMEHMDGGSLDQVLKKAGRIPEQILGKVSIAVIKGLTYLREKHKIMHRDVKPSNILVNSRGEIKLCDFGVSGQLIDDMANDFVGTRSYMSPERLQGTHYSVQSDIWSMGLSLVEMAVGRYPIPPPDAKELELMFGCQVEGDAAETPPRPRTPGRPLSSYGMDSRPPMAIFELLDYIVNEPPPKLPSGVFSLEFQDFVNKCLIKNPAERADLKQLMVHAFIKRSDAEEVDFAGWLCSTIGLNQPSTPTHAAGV

| SMILES | pIC50 |
| --- | --- |
| C=COCCON(CC1CC1)C(=O)c1oc2ccncc2c1Nc1ccc(I)cc1F [Example 145, 3-(2-Fluoro-4-iodo-phenylamino)-furo[3,2-c]pyridine-2-carboxylic acid cyclopropylmethyl-(2-vinyloxy-ethoxy)-amide monoformate] | > 5.00 |
| CCOC(=O)c1cncc2c(Nc3ccc(I)cc3F)c(C(=O)NOC[C@H](O)CO)oc12 [Example 136, 2-((R)-2,3-Dihydroxy-propoxycarbamoyl)-3-(2-fluoro-4-iodo-phenylamino)-furo[3,2-c]pyridine-7-carboxyl acid ethyl ester] | > 5.00 |
| CC(C)(C)OC(=O)N1CC(ONC(=O)c2oc3ccncc3c2Nc2ccc(I)cc2F)C1 [Example 27] | > 5.00 |
| CC(ONC(=O)c1oc2ccncc2c1Nc1ccc(I)cc1F)c1ccccc1 (stereo not drawn) [Example 116, N-(1-Phenylethoxy)3-(2-Fluoro-4-iodo-phenylamino)furo[3,2-c]pyridine-2-carboxamide] | > 5.00 |
| COc1ccc(Nc2c(C(=O)NOCCO)oc3ccncc23)c(F)c1 [Example 30, 3-(2-Fluoro-4-methoxy-phenylamino)-furo[3,2-c]pyridine-2-carboxlic acid (2-hydroxy-ethoxy)-amide] | > 5.00 |
| O=C(c1oc2ccncc2c1Nc1ccc(I)cc1F)N1CCC[C@H](O)C1 [Example 75, (3-(2-fluoro-4-iodophenylamino)furo[3,2-c]pyridin-2-yl)((S)-3-hydroxypiperidin-1-yl)methanone] | > 5.00 |
| O=C(c1oc2ccncc2c1Nc1ccc(I)cc1F)N1CC[C@H](O)[C@H]1CO [Example 131, (3-(2-fluoro-4-iodophenylamino)furo[3,2-c]pyridin-2-yl)((2R,3S)-3-hydroxy-2-(hydroxymethyl)pyrrolidin-1-yl)methanone] | > 5.00 |
| N[C@@H]1C[C@H](CO)N(C(=O)c2oc3ccncc3c2Nc2ccc(I)cc2F)C1 [Example 128, (3-(2-fluoro-4-iodophenylamino)furo[3,2-c]pyridin-2-yl)((2R,4R)-4-amino-2-(hydroxymethyl)pyrrolidin-1-yl)methanone] | > 5.00 |
| O=C(c1oc2c(F)cncc2c1Nc1ccc(I)cc1F)N1C[C@H](O)[C@@H](O)C1 [Example 158, ((3S,4S)-3,4-Dihydroxy-pyrrolidin-1-yl)-[7-fluoro-3-(2-fluoro-4-iodo-phenylamino)-furo[3,2-c]pyridin-2-yl]-methanone] | > 5.00 |
| CSc1ccc(Nc2c(C(N)=O)oc3ccncc23)c(F)c1 [Example 146, 3-(2-Fluoro-4-methylsulfanyl-phenylamino)-furo[3,2-c]pyridine-2-carboxylic acid amide] | > 5.00 |
| O=C(NOCCN1CCCC1=O)c1oc2ccncc2c1Nc1ccc(I)cc1F [Example 32, 3-(2-Fluoro-4-iodo-phenylamino)-furo[3,2-c]pyridine-2-carboxylic acid [2-(2-oxo-pyrrolidin-1-yl)-ethoxy] amide] | > 5.00 |
| CSc1ccc(Nc2c(C(=O)NOCCO)oc3c(Cl)cncc23)c(F)c1 [Example 152, 7-Chloro-3-(2-fluoro-4-methylsulfanyl-phenylamino)-furo[3,2-c]pyridine-2-carboxylic acid (2-hydroxy-ethoxy)-amide] | > 5.00 |
| N[C@@H]1CN(C(=O)c2oc3ccncc3c2Nc2ccc(I)cc2F)C[C@H]1O [Example 121, (3-(2-fluoro-4-iodophenylamino)furo[3,2-c]pyridin-2-yl)((3R,4R)-3-amino-4-hydroxypyrrolidin-1-yl)methanone] | > 5.00 |
| O=C(c1oc2ccncc2c1Nc1ccc(I)cc1F)N1C[C@H](O)C[C@H]1CO [Example 127, (3-(2-fluoro-4-iodophenylamino)furo[3,2-c]pyridin-2-yl)((2S,4R)-4-hydroxy-2-(hydroxymethyl)pyrrolidin-1-yl)methanone] | > 5.00 |
| CS(=O)(=O)C1CCN(C(=O)c2oc3ccncc3c2Nc2ccc(I)cc2F)C1 (stereo not drawn) [Example 78, (3-(2-fluoro-4-iodophenylamino)furo[3,2-c]pyridin-2-yl)(3-(methylsulfonyl)pyrrolidin-1-yl)methanone] | > 5.00 |
| Cc1nccc2oc(C(=O)NOCCO)c(Nc3ccc(I)cc3F)c12 [Example 144, 3-(2-Fluoro-4-iodo-phenylamino)-methyl-furo[3,2-c]pyridine-2-carboxylic acid (2-hydroxy-ethoxy)-amide] | > 5.00 |

Results, then the molecule that gave them:

| pIC50 | SMILES |
| --- | --- |
| > 5.00 | O=C(NO[C@H]1CCNC1)c1oc2ccncc2c1Nc1ccc(I)cc1F [Example 38, 3-(2-Fluoro-4-iodo-phenylamino)-furo[3,2-c]pyridine-2-carboxylic acid ((S)-pyrrolidin-3-yloxy)-amide mono formate salt] |
| > 5.00 | O=C(NC(CO)CO)c1oc2ccncc2c1Nc1ccc(I)cc1F [Example 68, 3-(2-fluoro-4-iodophenylamino)-N-(1,3-dihydroxypropan-2-yl)furo[3,2-c]pyridine-2-carboxamide] |
| > 5.00 | O=C(c1oc2ccncc2c1Nc1ccc(I)cc1F)N1CCC[C@@H]1CO [Example 87, (3-(2-fluoro-4-iodophenylamino)furo[3,2-c]pyridin-2-yl)((R)-2-(hydroxylmethyl)pyrrolidin-1-yl)methanone] |
| > 5.00 | CN(C)CCONC(=O)c1oc2ccncc2c1Nc1ccc(I)cc1F [Example 98, 3-(2-Fluoro-4-iodo-phenylamino)furo[3,2-c]pyridine-2-carboxylic acid (2-dimethylaminoethoxy) amide] |
| > 5.00 | O=C(NOC1CNC1)c1oc2ccncc2c1Nc1ccc(I)cc1F [Example 41, 3-(2-Fluoro-4-iodo-phenylamino)-furo[3,2-c]pyridine-2-carboxylic acid (azetidin-3-yloxy)-amide mono formate salt] |
| > 5.00 | CC1(C)OC[C@H](CCNC(=O)c2oc3ccncc3c2Nc2ccc(I)cc2F)O1 [Example 94, 3-(2-fluoro-4-iodophenylamino)-N-(2-((S)-2,2-dimethyl-1,3-dioxolan-4-yl)ethyl)furo[3,2-c]pyridine-2-carboxamide] |
| > 5.00 | O=C(NOC1CCOCC1)c1oc2ccncc2c1Nc1ccc(I)cc1F [Example 25, 3-(2-Fluoro-4-iodo-phenylamino)-furo[3,2-c]pyridine-2-carboxylic acid (tetrahydro-pyran-4-yloxy)-amide] |
| > 5.00 | O=C(NCCCO)c1oc2ccncc2c1Nc1ccc(I)cc1F [Example 61, 3-(2-fluoro-4-iodophenylamino)-N-(3-hydroxypropyl)furo[3,2-c]pyridine-2-carboxamide] |
| > 5.00 | O=C(c1oc2ccncc2c1Nc1ccc(I)cc1F)N1CC[C@@H](O)C1 [Example 59, (3-(2-fluoro-4-iodophenyl amino)furo[3,2-c]pyridin-2-yl)((R)-3-hydroxypyrrolidin-1-yl)methanone] |
| > 5.00 | O=C(c1oc2ccncc2c1Nc1ccc(I)cc1F)N1CC[C@H](O)C1 [Example 70, (3-(2-fluoro-4-iodophenylamino)furo[3,2-c]pyridin-2-yl)((S)-3-hydroxypyrrolidin-1-yl)methanone] |
| > 5.00 | CC(CO)ONC(=O)c1oc2ccncc2c1Nc1ccc(I)cc1F (stereo not drawn) [Example 54, 3-(2-Fluoro-4-iodo-phenylamino)-furo[3,2-c]pyridine-2-carboxylic acid (2-hydroxy-1-methyl-ethoxy)-amide] |
| > 5.00 | CONC(=O)c1oc2ccncc2c1Nc1ccc(I)cc1F [Example 29, 3-(2-Fluoro-4-iodo-phenylamino)-furo[3,2-c]pyridine-2-carboxylic acid methoxy-amide] |
| > 5.00 | O=C(c1oc2ccncc2c1Nc1ccc(I)cc1F)N1CC[S+]([O-])C1 (stereo not drawn) [Example 100, (3-(2-fluoro-4-iodophenylamino)furo[3,2]pyridin-2-yl)(1-oxothiazolidin-3-yl)methanone] |
| > 5.00 | O=C(NOC[C@@H]1CCCN1)c1oc2ccncc2c1Nc1ccc(I)cc1F [Example 141, 3-(2-Fluoro-4-iodo-phenylamino)-furo[3,2-c]pyridine-2-carboxylic acid ((S)-1-pyrrolidin-2-ylmethoxy)-amide] |
| > 5.00 | O=C(c1oc2ccncc2c1Nc1ccc(I)cc1F)N1CCC[C@H]1CO [Example 79, (3-(2-fluoro-4-iodophenylamino)furo[3,2-c]pyridin-2-yl)((S)-2-(hydroxymethyl)pyrrolidin-1-yl)methanone] |
| > 5.00 | C[C@H](CO)NC(=O)c1oc2ccncc2c1Nc1ccc(I)cc1F [Example 85, 3-(2-fluoro-4-iodophenylamino)-N-((R)-1-hydroxypropan-2-yl)furo[3,2-c]pyridine-2-carboxamide] |
| > 5.00 | O=C(NCCCn1ccnc1)c1oc2ccncc2c1Nc1ccc(I)cc1F [Example 67, N-(3-(1H-imidazol-1-yl)propyl)-3-(2-fluoro-4-iodophenylamino)furo[3,2-c]pyridine-2-carboxamide] |
| > 5.00 | CN1CCC(ONC(=O)c2oc3ccncc3c2Nc2ccc(I)cc2F)CC1 [Example 97, 3-(2-Fluoro-4-iodophenylamino)furo[3,2-c]pyridine-2-carboxylic acid (1-methylpiperidin-4-yloxy) amide] |
| > 5.00 | CNC(=O)c1oc2ccncc2c1Nc1ccc(I)cc1F [Example 91, 3-(2-fluoro-4-iodophenylamino)-N-methylfuro[3,2-c]pyridine-2-carboxamide] |
| > 5.00 | N[C@@H]1CCN(C(=O)c2oc3ccncc3c2Nc2ccc(I)cc2F)C1 [Example 74, (3-(2-fluoro-4-iodophenylamino)furo[3,2-c]pyridin-2-yl)((R)-3-aminopyrrolidin-1-yl)methanone] |
| > 5.00 | C[C@@H](O)CONC(=O)c1oc2ccncc2c1Nc1ccc(I)cc1F [Example 117, 3-(2-Fluoro-4-iodo-phenylamino)-furo[3,2-c]pyridine-2-carboxylic acid ((R)-2-hydroxy-propoxy)-amide] |
| > 5.00 | CC(C)CCNC(=O)c1oc2ccncc2c1Nc1ccc(I)cc1F [Example 96, 3-(2-fluoro-4-iodophenylamino)-N-isopentylfuro[3,2-c]pyridine-2-carboxamide] |
| > 5.00 | O=C(c1oc2ccncc2c1Nc1ccc(I)cc1F)N1CC(O)C1 [Example 122, (3-(2-fluoro-4-iodophenylamino)furo[3,2-c]pyridin-2-yl)(3-hydroxyazetidin-1-yl)methanone] |

— patent publication US20080085886A1, “Aza-benzofuranyl compounds and methods of use” (GENENTECH, INC., priority 2006, published 2008)
